From PubChem BioAssay AID256 (DTP/NCI, 2004)
The list shows only some results of the screen, not a fair sample: it gathers tests that were run many times, whatever their T/C, doses with no T/C, and many T/C values between a quarter and a half above the control. Further doses and runs are listed elsewhere. T/C gives the treated animals as a percentage of the vehicle group. Some entries give survivors of the animals treated and no T/C: the source files T/C as zero there, which appears to mark a toxic dose or a test without result, not a measured value. Some doses without a T/C left all or most animals alive at the check, yet need not have been tolerated: survival well below the control is almost never listed, so the zero probably covers shortened survival too. Counts of survivors are from the toxicity check (mostly the fifth day) where no day follows; animals may have died later. Schedules are NCI's codes, read here as Q, the interval in days (D) or hours (H), X, the number of doses. Some entries hold several experiments; their values stand side by side, smallest first. Where survival is the endpoint, the PubChem record calls one and a half times the control and up active, and a quarter to a half above the control has no call in these data; cut-offs in other NCI protocols can differ. Some T/C values are followed by the survivors on the day toxicity was checked, most often the fifth; without a count, all were alive then.

System: CD2F1 mice, L1210 leukemia ip, survival T/C
Experiment: NCI In Vivo Anticancer Drug Screen. Data for tumor model L1210 Leukemia (intraperitoneal) in CD2F1 (CDF1) mice
Conditions: higher T/C = longer survival
Summary of the method: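 In this screen, transplantable tumors were grown in mice given either the compound or its vehicle. Results were expressed as the treated measurement relative to the control measurement.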

[1] = T/C endpoint: mean survival time, dose: 200.0 mg/kg/injection, schedule: Q04DX002 (ip), vehicle: saline with Tween-80
[2] = T/C endpoint: mean survival time, dose: 200.0 mg/kg/injection, schedule: Q04DX003 (ip), vehicle: saline with Tween-80
[3] = T/C endpoint: mean survival time, dose: 400.0 mg/kg/injection, schedule: Q04DX002 (ip), vehicle: saline with Tween-80
[4] = T/C endpoint: mean survival time, dose: 400.0 mg/kg/injection, schedule: Q04DX003 (ip), vehicle: saline with Tween-80

How did the T/C (T/C endpoint: mean survival time, dose: 25.0 mg/kg/injection, schedule: Q04DX002 (ip), vehicle: saline with Tween-80) turn out when `N#CC(c1ccccn1)N1CCOCC1` (stereo unspecified) was run?
The T/C was 93, 95, 96, 126 % of control.

What about the T/C (T/C endpoint: mean survival time, dose: 50.0 mg/kg/injection, schedule: Q04DX002 (ip), vehicle: saline with Tween-80) of the same molecule?
Its T/C is 97, 101, 104, 106 % of control.

And the T/C (T/C endpoint: mean survival time, dose: 100.0 mg/kg/injection, schedule: Q04DX002 (ip), vehicle: saline with Tween-80)?
Its T/C is 93, 98, 100, 110 % of control.

What about the survivor count (T/C endpoint: mean survival time, dose: 200.0 mg/kg/injection, schedule: Q01DX009 (ip), vehicle: saline with Tween-80) of the same molecule?
Its survivor count is 1 of 6 and 1 of 3.

And the survivor count [1]?
The survivor count was 0 of 3.

And the survivor count [2]?
The survivor count was 1 of 6.

What about the survivor count [3] of the same molecule?
Its survivor count is 0 of 3 and 0 of 6.

For `O=C(O)c1cccc(COc2ccc([N+](=O)[O-])cc2Cl)c1`, which survivor count (T/C endpoint: mean survival time, dose: 400.0 mg/kg/injection, schedule: Q01DX009 (ip), vehicle: saline with Tween-80) is on record?
The survivor count was 0 of 6.

With `C=CCNC(=S)n1cnc(N)n1` as the molecule, how does the survivor count [1] read?
Its survivor count is 2 of 3.

And the survivor count [3]?
Its survivor count is 0 of 3.

Which results are given for `COc1ccc2cc3[n+](cc2c1OC)CCc1cc2c(cc1-3)OCO2`?
survivor count (T/C endpoint: mean survival time, dose: 20.0 mg/kg/injection, schedule: Q01DX009 (ip), vehicle: saline with Tween-80): 1 of 6; survivor count (T/C endpoint: mean survival time, dose: 100.0 mg/kg/injection, schedule: Q04DX003 (ip), vehicle: saline with Tween-80): 0 of 6; survivor count [2]: 0 of 6; survivor count [4]: 0 of 6

With `CCOC(=O)C(NCc1ccccc1)C(=O)OCC` as the molecule, how does the survivor count (T/C endpoint: mean survival time, dose: 200.0 mg/kg/injection, schedule: Q01DX009 (ip), vehicle: water) read?
Its survivor count is 3 of 6.

What does the source list for `COC(=O)Nc1cccc(-c2nc3ccc(NC(=O)OC)cc3c(=O)n2-c2ccccc2)c1`?
survivor count (T/C endpoint: mean survival time, dose: 200.0 mg/kg/injection, schedule: Q01DX009 (ip), vehicle: Klucel (hydroxypropylcellulose) (HPC)): 0 of 6; survivor count (T/C endpoint: mean survival time, dose: 400.0 mg/kg/injection, schedule: Q01DX009 (ip), vehicle: Klucel (hydroxypropylcellulose) (HPC)): 0 of 6; T/C (T/C endpoint: median survival time, dose: 400.0 mg/kg/injection, schedule: Q04DX003 (ip), vehicle: saline with Tween-80): 129 % of control [9 of 10 alive]

`COc1ccc(N2C(=O)C=CC2=O)cc1` was tested. Which survivor count (T/C endpoint: mean survival time, dose: 50.0 mg/kg/injection, schedule: Q01DX001 (ip), vehicle: saline with Tween-80) did it give?
Its survivor count is 0 of 3.

What about the survivor count (T/C endpoint: mean survival time, dose: 100.0 mg/kg/injection, schedule: Q01DX001 (ip), vehicle: saline with Tween-80) of the same molecule?
Its survivor count is 0 of 3.

How did the survivor count (T/C endpoint: mean survival time, dose: 200.0 mg/kg/injection, schedule: Q01DX009 (ip), vehicle: other) turn out when `[O-][n+]1cccc2ccc3ccccc3c21` was run?
Its survivor count is 0 of 3.

Which survivor count (T/C endpoint: mean survival time, dose: 400.0 mg/kg/injection, schedule: Q01DX001 (ip), vehicle: saline with Tween-80) does the source give for `COc1cc([N+](=O)[O-])ccc1NC(=O)NCCc1ccccc1` here?
Its survivor count is 3 of 3.

With `c1ccc(C(c2ccccc2)n2ccnc2)cc1` as the molecule, how does the survivor count (T/C endpoint: mean survival time, dose: 300.0 mg/kg/injection, schedule: Q01DX001 (ip), vehicle: saline) read?
Its survivor count is 2 of 6.

Which survivor count (T/C endpoint: mean survival time, dose: 100.0 mg/kg/injection, schedule: Q04DX003 (ip), vehicle: saline sonified) does the source give for `C[n+]1ccccc1/C=C/c1ccccn1` here?
Its survivor count is 1 of 6.

What about the survivor count (T/C endpoint: mean survival time, dose: 200.0 mg/kg/injection, schedule: Q04DX003 (ip), vehicle: saline sonified) of the same molecule?
The survivor count was 0 of 6.

And the survivor count (T/C endpoint: mean survival time, dose: 400.0 mg/kg/injection, schedule: Q04DX003 (ip), vehicle: saline sonified)?
The survivor count was 0 of 6.

What does the source list for `CC1=NN(c2cccc(S(=O)(=O)O)c2)C(=O)C1`?
survivor count (T/C endpoint: mean survival time, dose: 200.0 mg/kg/injection, schedule: Q01DX009 (ip), vehicle: saline sonified): 5 of 6; survivor count (T/C endpoint: mean survival time, dose: 400.0 mg/kg/injection, schedule: Q01DX009 (ip), vehicle: saline sonified): 3 of 6

For `CCCCCc1cc(/C=C2/N=C(c3ccc[nH]3)C=C2OC)[nH]c1C`, which survivor count (T/C endpoint: mean survival time, dose: 8.0 mg/kg/injection, schedule: Q01DX009 (ip), vehicle: saline with Tween-80) is on record?
Its survivor count is 5 of 6.

`Oc1ccc(CCl)c2cccnc12` was tested. Which survivor count (T/C endpoint: median survival time, dose: 200.0 mg/kg/injection, schedule: Q01DX009 (ip), vehicle: saline) did it give?
Its survivor count is 2 of 6.

`O=[As](O)(CC(O)COc1ccc(Cl)cc1Cl)c1cccc(Cl)c1` (stereo unspecified) was tested. Which survivor count (T/C endpoint: mean survival time, dose: 25.0 mg/kg/injection, schedule: Q04DX003 (ip), vehicle: saline with Tween-80) did it give?
Its survivor count is 0 of 6.

What does the source list for `Cc1ccc(Cl)cc1NC(=O)c1ccc([N+](=O)[O-])cc1`?
survivor count [2]: 6 of 6; survivor count [4]: 6 of 6

`CCC(=O)Oc1ccc(/C=N/NC(N)=S)nc1` was tested. Which T/C (T/C endpoint: mean survival time, dose: 400.0 mg/kg/injection, schedule: Q04DX002 (ip), vehicle: other) did it give?
The T/C was 126 % of control.

What about the T/C (T/C endpoint: mean survival time, dose: 800.0 mg/kg/injection, schedule: Q04DX002 (ip), vehicle: other) of the same molecule?
The T/C was 134 % of control.

And the T/C (T/C endpoint: mean survival time, dose: 900.0 mg/kg/injection, schedule: Q01DX001 (ip), vehicle: other)?
Its T/C is 130 % of control.
